Source: publication PMC3037350

Target: recombinant P. falciparum 3D7 AMA1 ectodomain (P. falciparum 3D7)
Test: ELISA; competitive ELISA: 1 µg/ml Pf3D7-AMA1 coated, 20 µg/ml Pf3D7-RON2-5, increasing concentrations of R1 or control peptide P8 pre-incubated for 15 min with recombinant protein; both purified

VFAEFLPLFSKFGSRMHILK [R1 peptide]
binding: binds

These are yes or no findings as the source states them, for the method shown. A result given as binding can be weak or reduced; the word gives no strength.
